{
  "source": "patent US20020132296",
  "proteins": {"B1": {"name": "Glutathionine S-transferase (GST)/novel human kinase fusion (protein)", "chain": "MAHSPVQSGLPGMQNLKADPEELFTKLEKIGKGSFGEVFKGIDNRTQKVVAIKIIDLEEAEDEIEDIQQEITVLSQCDSPYVTKYYGSYLKDTKLWIIMEYLGGGSALDLLEPGPLDETQIATILREILKGLDYLHSEKKIHRDIKAANVLLSEHGEVKLADFGVAGQLTDTQIKRNTFVGTPFWMAPEVIKQSAYDSKADIWSLGITAIELARGEPPHSELHPMKVLFLIPKNNPPTLEGNYSKPLKEFVEACLNKEPSFRPTAKELLKHKFILRNAKKTSYLTELIDRYKRWKAEQSHDDSSSEDSDAETDGQASGGSDSGDWIFTIREKDPKNLENGALQPSDLDRNKMKDIPKRPFSQCLSTIISPLFAELKEKSQACGGNLGSIEELRGAIYLAEEACPGISDTMVAQLVQRLQRYSLSGGGTSSH"}},
  "target": "myelin basic protein",
  "data": [
    {"protein": "B1", "values": [
      {"measurement": "phosphorylation of MBP in an in vitro kinase assay with [gamma-32P] ATP, SDS gel and autoradiograph (FIG. 6)", "result": "Phosphorylation of MBP (1 8-20kDa) and autophosphorylation of the fusion protein kinase (76.9kDa) are evident in lane 1"}
    ]}
  ]
}
